PubChem BioAssay AID330 (DTP/NCI, 2004)
The list shows only some results of the screen, not a fair sample: it is rich in T/C values a quarter to a half above the control, in often repeated tests (any T/C) and in doses without a T/C. Other doses and runs of a compound stand elsewhere. T/C is the treated group as % of the vehicle group. Some doses have a count of surviving animals in place of a T/C: the source files T/C as zero there, which appears to mark a toxic dose or a test without result, not a measured value. Some survivor counts are full or nearly so, which does not show that the dose was tolerated: survival well below the control is almost never listed, so the zero probably covers shortened survival too. Counts of survivors are from the toxicity check (mostly the fifth day) where no day follows; animals may have died later. Schedules are NCI's codes, taken here to give the interval after Q, in days (D) or hours (H), and the number of doses after X. Some doses were run more than once; the results are listed from low to high. Where survival is the endpoint, the PubChem record calls one and a half times the control and up active, and a quarter to a half above the control has no call in these data; cut-offs in other NCI protocols can differ. Some T/C values are followed by the survivors on the day toxicity was checked, most often the fifth; without a count, all were alive then.

Tested on: P388 leukemia ip, CD2F1 mice, survival T/C
Experiment: NCI In Vivo Anticancer Drug Screen. Data for tumor model P388 Leukemia (intraperitoneal) in CD2F1 (CDF1) mice
Details: T/C endpoint: median survival time, higher T/C = longer survival
[1] = dose: 240.0 mg/kg/injection, schedule: Q01DX005 (ip), vehicle: saline with Tween-80
[2] = dose: 200.0 mg/kg/injection, schedule: Q01DX005 (ip), vehicle: saline with Tween-80
[3] = dose: 200.0 mg/kg/injection, schedule: Q01DX009 (ip), vehicle: saline
[4] = dose: 400.0 mg/kg/injection, schedule: Q01DX009 (ip), vehicle: saline
[5] = dose: 100.0 mg/kg/injection, schedule: Q01DX009 (ip), vehicle: saline with Tween-80
[6] = dose: 200.0 mg/kg/injection, schedule: Q01DX009 (ip), vehicle: saline with Tween-80
[7] = dose: 120.0 mg/kg/injection, schedule: Q01DX005 (ip), vehicle: Klucel (hydroxypropylcellulose) (HPC)
[8] = dose: 240.0 mg/kg/injection, schedule: Q01DX005 (ip), vehicle: Klucel (hydroxypropylcellulose) (HPC)
[9] = dose: 120.0 mg/kg/injection, schedule: Q01DX005 (ip), vehicle: saline
[10] = dose: 12.5 mg/kg/injection, schedule: Q01DX005 (ip), vehicle: saline
[11] = dose: 50.0 mg/kg/injection, schedule: Q01DX005 (ip), vehicle: saline
[12] = dose: 100.0 mg/kg/injection, schedule: Q01DX005 (ip), vehicle: saline
[13] = dose: 200.0 mg/kg/injection, schedule: Q01DX005 (ip), vehicle: saline

Question: `O=C1C(N2CC2)=C(N2CC2)C(=O)C(N2CC2)=C1N1CC1` was tested. Which survivor count (dose: 0.5 mg/kg/injection, schedule: Q04DX003 (ip), vehicle: saline with Tween-80) did it give?
Answer: 5 of 6

Question: And the survivor count (dose: 1.0 mg/kg/injection, schedule: Q04DX003 (ip), vehicle: saline with Tween-80)?
Answer: 6 of 6

Question: And the survivor count (dose: 2.0 mg/kg/injection, schedule: Q04DX003 (ip), vehicle: saline with Tween-80)?
Answer: 2 of 6

Question: And the T/C (dose: 6.0 micrograms/kg/injection, schedule: Q01DX009 (ip), vehicle: saline)?
Answer: 128 % of control

Question: `COc1cc2c[n+]3c4c(cccc4c2cc1OC)CCC3` was tested. Which survivor count (dose: 100.0 mg/kg/injection, schedule: Q01DX009 (ip), vehicle: water) did it give?
Answer: 5 of 6

Question: What about the survivor count (dose: 200.0 mg/kg/injection, schedule: Q01DX009 (ip), vehicle: water) of the same molecule?
Answer: 0 of 6

Question: With `CCc1ccc(O)c(CN2CCN(Cc3cc(CC)ccc3O)CC2)c1` as the molecule, how does the survivor count (dose: 60.0 mg/kg/injection, schedule: Q01DX005 (ip), vehicle: saline with Tween-80) read?
Answer: 6 of 6

Question: What about the survivor count (dose: 120.0 mg/kg/injection, schedule: Q01DX005 (ip), vehicle: saline with Tween-80) of the same molecule?
Answer: 6 of 6

Question: And the survivor count [1]?
Answer: 6 of 6

Question: `COc1ccc(C(C)c2cc(N=NC(N)=O)c(OC)cc2O)cc1` (stereo not drawn) was tested. Which survivor count (dose: 50.0 mg/kg/injection, schedule: Q01DX005 (ip), vehicle: saline with Tween-80) did it give?
Answer: 6 of 6

Question: What about the survivor count (dose: 100.0 mg/kg/injection, schedule: Q01DX005 (ip), vehicle: saline with Tween-80) of the same molecule?
Answer: 6 of 6

Question: What about the survivor count [2] of the same molecule?
Answer: 6 of 6

Question: How did the T/C (dose: 12.5 mg/kg/injection, schedule: Q01DX009 (ip), vehicle: saline) turn out when `O=C1C=CC(=O)O1` (tested in a mixture with another compound) was run?
Answer: 131 % of control

Question: And the T/C (dose: 25.0 mg/kg/injection, schedule: Q01DX009 (ip), vehicle: saline)?
Answer: 135 and 147 % of control

Question: What about the T/C (dose: 50.0 mg/kg/injection, schedule: Q01DX009 (ip), vehicle: saline) of the same molecule?
Answer: 131 and 145 % of control

Question: What about the T/C (dose: 50.0 mg/kg/injection, schedule: Q04DX003 (ip), vehicle: saline) of the same molecule?
Answer: 130 % of control

Question: And the T/C (dose: 75.0 mg/kg/injection, schedule: Q01DX009 (ip), vehicle: saline)?
Answer: 140 % of control

Question: And the T/C (dose: 100.0 mg/kg/injection, schedule: Q01DX009 (ip), vehicle: saline)?
Answer: 137, 138, 148 % of control

Question: What about the T/C (dose: 100.0 mg/kg/injection, schedule: Q04DX003 (ip), vehicle: saline) of the same molecule?
Answer: 140 % of control

Question: What about the T/C [3] of the same molecule?
Answer: 138 % of control

Question: And the survivor count (dose: 300.0 mg/kg/injection, schedule: Q01DX009 (ip), vehicle: saline)?
Answer: 1 of 6

Question: What about the T/C [4] of the same molecule?
Answer: 132 [5 of 6 alive] and 135 % of control

Question: And the survivor count [4]?
Answer: 2 of 6

Question: How did the survivor count [5] turn out when `CCOc1ccc2c(N/N=C/c3ccc(N(CCCl)CCCl)cc3)cc(C)nc2c1` was run?
Answer: 5 of 6

Question: What about the survivor count [6] of the same molecule?
Answer: 6 of 6

Question: How did the survivor count [3] turn out when `CCCCCCCC/C=C\CCCCCCCC[N+]1([O-])CCOCC1` was run?
Answer: 6 of 6

Question: How did the survivor count (dose: 50.0 mg/kg/injection, schedule: Q01DX009 (ip), vehicle: Klucel (hydroxypropylcellulose) (HPC)) turn out when `O=[N+]([O-])c1ccc(Sc2ncnc3nc[nH]c23)c2nonc12` was run?
Answer: 0 of 6

Question: And the survivor count (dose: 100.0 mg/kg/injection, schedule: Q01DX009 (ip), vehicle: Klucel (hydroxypropylcellulose) (HPC))?
Answer: 0 of 6

Question: What about the survivor count (dose: 200.0 mg/kg/injection, schedule: Q01DX009 (ip), vehicle: Klucel (hydroxypropylcellulose) (HPC)) of the same molecule?
Answer: 0 of 6

Question: Which results are given for `O=c1cc(-c2ccccc2)[nH]c2c1CCCC2`?
Answer: T/C [5]: 130 % of control; T/C [6]: 141 and 148 % of control; survivor count (dose: 600.0 mg/kg/injection, schedule: Q01DX009 (ip), vehicle: saline with Tween-80): 0 of 6

Question: Which results are given for `CCc1nc(N)nc(N)c1-c1ccc(N(C)C)c(N=[N+]=[N-])c1`?
Answer: survivor count [7]: 0 of 6; survivor count [8]: 0 of 6

Question: `COC(=O)c1cc(-c2ccc([N+](=O)[O-])cc2)n2c(N)nnc2n1` was tested. Which survivor count [1] did it give?
Answer: 6 of 6

Question: Which survivor count (dose: 100.0 mg/kg/injection, schedule: Q01DX005 (ip), vehicle: Klucel (hydroxypropylcellulose) (HPC)) does the source give for `Nc1ccc(S(=O)(=O)n2c(=O)oc3cc(Cl)ccc32)cc1` here?
Answer: 6 of 6

Question: What about the survivor count (dose: 200.0 mg/kg/injection, schedule: Q01DX005 (ip), vehicle: Klucel (hydroxypropylcellulose) (HPC)) of the same molecule?
Answer: 6 of 6

Question: Which results are given for `OCCN(Cc1ccccn1)Cc1ccccn1`?
Answer: survivor count (dose: 30.0 mg/kg/injection, schedule: Q01DX005 (ip), vehicle: saline): 3 of 6; survivor count (dose: 60.0 mg/kg/injection, schedule: Q01DX005 (ip), vehicle: saline): 0 of 6; survivor count [9]: 0 of 6; survivor count (dose: 240.0 mg/kg/injection, schedule: Q01DX005 (ip), vehicle: saline): 0 of 6

Question: Which survivor count (dose: 3.12 mg/kg/injection, schedule: Q01DX005 (ip), vehicle: saline) does the source give for `O=C(Cc1ccc(C2=NCCN2)cc1[N+](=O)[O-])c1ccc(C2=NCCN2)cc1` here?
Answer: 3 of 6 and 6 of 6

Question: What about the survivor count [10] of the same molecule?
Answer: 2 of 6

Question: What about the survivor count [11] of the same molecule?
Answer: 0 of 6

Question: And the survivor count [12]?
Answer: 0 of 6

Question: And the survivor count [13]?
Answer: 0 of 6

Question: With `C=C1CCN(c2ccc(OCC)cc2)C1=O` as the molecule, how does the T/C (dose: 16.0 mg/kg/injection, schedule: Q01DX009 (ip), vehicle: saline + alcohol) read?
Answer: 136 % of control

Question: With `O=NN(CCCl)C(=O)NC1[C@H](O)CCC[C@@H]1O` (stereo partly drawn) as the molecule, how does the T/C (dose: 1.25 mg/kg/injection, schedule: Q01DX005 (ip), vehicle: saline) read?
Answer: 142 % of control

Question: And the survivor count [10]?
Answer: 6 of 6

Question: And the survivor count (dose: 20.0 mg/kg/injection, schedule: Q01DX005 (ip), vehicle: saline)?
Answer: 6 of 6

Question: And the survivor count (dose: 25.0 mg/kg/injection, schedule: Q01DX005 (ip), vehicle: saline)?
Answer: 5 of 6

Question: What about the survivor count (dose: 40.0 mg/kg/injection, schedule: Q01DX005 (ip), vehicle: saline) of the same molecule?
Answer: 5 of 6

Question: What about the survivor count [11] of the same molecule?
Answer: 2 of 6

Question: What about the survivor count [12] of the same molecule?
Answer: 0 of 6

Question: `CC(=O)On1nnc2ccccc2c1=O` was tested. Which survivor count (dose: 50.0 mg/kg/injection, schedule: Q01DX009 (ip), vehicle: distilled water + Tween-80) did it give?
Answer: 5 of 6

Question: What about the survivor count (dose: 100.0 mg/kg/injection, schedule: Q01DX009 (ip), vehicle: distilled water + Tween-80) of the same molecule?
Answer: 4 of 6

Question: How did the survivor count [2] turn out when `O=C(Cn1ccnc1)Nc1ccc(Cl)cc1C(=O)c1ccccc1` was run?
Answer: 6 of 6

Question: For `CC1(C)OC(C(F)(F)F)(C(F)(F)F)c2cc(C(C)(C)C)cc(C(O)(C(F)(F)F)C(F)(F)F)c2S1`, which survivor count [1] is on record?
Answer: 3 of 6

Question: With `O=c1[nH]cc(COCC(F)(F)F)c(=O)[nH]1` as the molecule, how does the survivor count (dose: 200.0 mg/kg/injection, schedule: Q04DX003 (ip), vehicle: saline with Tween-80) read?
Answer: 2 of 3

Question: How did the survivor count [1] turn out when `C[Si](C)(C)CCCNCCNCCC[Si](C)(C)C` was run?
Answer: 1 of 6

Question: Which survivor count (dose: 25.0 mg/kg/injection, schedule: Q01DX009 (ip), vehicle: saline with Tween-80) does the source give for `Cc1c2cccc(Sc3ccccc3)c2c2c3c(cccc13)[S+](c1ccccc1)C2` (stereo not drawn) here?
Answer: 6 of 6

Question: And the survivor count (dose: 50.0 mg/kg/injection, schedule: Q01DX009 (ip), vehicle: saline with Tween-80)?
Answer: 0 of 6

Question: And the survivor count [5]?
Answer: 0 of 6

Question: How did the T/C (dose: 200.0 mg/kg/injection, schedule: Q01DX001 (ip), vehicle: other) turn out when `NC1=C(O)C(=O)C(c2ccccn2)O1` (stereo not drawn) was run?
Answer: 125 % of control

Question: `CCCN(CCC)CCCOC(=O)c1ccc2oc3ccc(C(=O)OCCCN(CCC)CCC)cc3c2c1` was tested. Which survivor count [3] did it give?
Answer: 2 of 6

Question: With `C=CCN(CC=C)C(N)=Nc1ccccc1Cl` as the molecule, how does the survivor count [11] read?
Answer: 0 of 6

Question: And the survivor count [12]?
Answer: 0 of 6

Question: And the survivor count [13]?
Answer: 0 of 6

Question: How did the survivor count [9] turn out when `COc1nc2c(nc(N)n2C2OC(COC(C)=O)C(OC(C)=O)C(OC(C)=O)C2OC(C)=O)c(=O)n1C` (stereo not drawn) was run?
Answer: 5 of 6

Question: For `CCOC(=O)c1ccc(N=NC2Sc3nc4ccccc4n3C2=O)cc1` (stereo not drawn), which survivor count (dose: 60.0 mg/kg/injection, schedule: Q01DX005 (ip), vehicle: Klucel (hydroxypropylcellulose) (HPC)) is on record?
Answer: 6 of 6

Question: What about the survivor count [7] of the same molecule?
Answer: 6 of 6

Question: What about the survivor count [8] of the same molecule?
Answer: 4 of 6

Question: How did the survivor count [6] turn out when `Cc1ccc(C)c2c1CCC2C` (stereo not drawn) was run?
Answer: 4 of 6 and 5 of 6
